Source: publication PMC7819943, “Rice protein-binding microarrays: a tool to detect cis-acting elements near promoter regions in rice”
This is one part of the list.

By UniProt entry, the sequences of proteins in these tests, tags left out.
UniProt Q0JBA9, entry or part of it: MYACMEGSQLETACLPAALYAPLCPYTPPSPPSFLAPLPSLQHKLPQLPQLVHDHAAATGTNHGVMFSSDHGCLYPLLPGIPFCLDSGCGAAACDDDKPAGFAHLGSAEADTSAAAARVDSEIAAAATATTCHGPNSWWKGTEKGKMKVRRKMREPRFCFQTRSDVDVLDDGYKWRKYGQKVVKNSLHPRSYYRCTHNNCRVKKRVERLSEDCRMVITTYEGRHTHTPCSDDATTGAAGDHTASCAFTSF

Target: OsWRKY34 (Oryza sativa, UniProt Q0JBA9 1-250)
Assay: protein-binding microarray (RPBM); PBS, 2% BSA, 51.3 ng/ul salmon testes DNA, 50 uM zinc acetate, 200 nM TF, 25 C, 1 h; high values mean tight binding
Conditions: protein: recombinant; tags: N-terminal polyhistidine and DsRed monomer fusion (pET32a); label: CyDye5-dUTP incorporated in the synthesized complementary strand; 3' TTTTT single-stranded linker to array surface; dsDNA, one strand shown
How it was run: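 Using Ni–NTA, transcription factors fused N-terminally to polyhistidine and DsRed were purified after expression in E. coli BL21-CodonPlus. These were incubated at 200 nM with a blocked, double-stranded custom Agilent array for 1 h at 25 °C in a buffer containing 50 µM zinc acetate, and the array was washed. The binding signal is per-feature fluorescence intensity (arbitrary units) on an Axon 4000B scanner.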

Sequence	binding signal
CCCTAGCCGCCACCGTTCACTCTCCGCCTCTCCCTGGTTCCGGAGTCACCTAGTGCAG	8920 fluorescence intensity (a.u.)
TGAGAGGATCCATGTCTCTTTCTTCTTCATTCATTCTTCCCGGAGTCACCTAGTGCAG	12100 fluorescence intensity (a.u.)
CCATCACTCTCTCTTCACTCAATGCCGTGGAAATTGGAAGCGGAGTCACCTAGTGCAG	8220 fluorescence intensity (a.u.)
CACGCATTCCTCTGCACCTCTGCAGTCTGCACACACGCACCGGAGTCACCTAGTGCAG	12900 fluorescence intensity (a.u.)
TCCTGGTGAGCACATCCTCCGCCACCGCCGCCTGCTCCGACGGAGTCACCTAGTGCAG	10400 fluorescence intensity (a.u.)
ACTTGATTTACGAACAGACATTTTTTATTTTTCTACACCACGGAGTCACCTAGTGCAG	9230 fluorescence intensity (a.u.)
ATCTCGCTTCCATTTCTTCGCCATTTGAGCTTTCTTGGAGCGGAGTCACCTAGTGCAG	8910 fluorescence intensity (a.u.)
GCTTTCTTGCTTCTATTCTGTACCAGGATTCTCCCAACCTCGGAGTCACCTAGTGCAG	9130 fluorescence intensity (a.u.)
CCCCGCGCCTCAGTTTTTCTCTCACCCACGCGACGGCTCGCGGAGTCACCTAGTGCAG	10900 fluorescence intensity (a.u.)
ACCCGTCTCTGTTCATCTCCACATCTTGTCTTCTCGCTGTCGGAGTCACCTAGTGCAG	18100 fluorescence intensity (a.u.)
GCAAAACTAGCATCTTTATTTATTGGGGCATTGGTTATTACGGAGTCACCTAGTGCAG	11000 fluorescence intensity (a.u.)
GATATGGTAATTTAGTGTCCATTATGGTGTTTCTTAATTGCGGAGTCACCTAGTGCAG	8100 fluorescence intensity (a.u.)
TCCTAACCAAACGGGCCGTGATCCCTTTTGCTTCTCTGATCGGAGTCACCTAGTGCAG	9300 fluorescence intensity (a.u.)
TGCATCACAAACACTTGTCGTCGTCTTCAATGCCACCAGCCGGAGTCACCTAGTGCAG	8190 fluorescence intensity (a.u.)
CCTCTTCGAAGCCGTGAAATCTCAGCCGTCCATCCATGATCGGAGTCACCTAGTGCAG	9040 fluorescence intensity (a.u.)
TCTTACACAATATGTTGTCTCCTGCTGCTTCATATGTTCTCGGAGTCACCTAGTGCAG	14200 fluorescence intensity (a.u.)
TAGATAATTTTGTATGGGTTGCTAGCCGCGCAATTGCGCGCGGAGTCACCTAGTGCAG	8420 fluorescence intensity (a.u.)
ATTTACCTTTACACGACACTTCAGTTGGTTTGAATGCTTTCGGAGTCACCTAGTGCAG	8720 fluorescence intensity (a.u.)
TTTATTTTTAATTTTTTTGCGTTGGTGTGTGTTGTTCAATCGGAGTCACCTAGTGCAG	11200 fluorescence intensity (a.u.)
AACGAATGCTTAGGCCCAAACTACAACTTTCTCGTTTTCTCGGAGTCACCTAGTGCAG	11000 fluorescence intensity (a.u.)
GACGCGGCCCTCCGCCGACACCCTCGCTTCCTCTCCTGGTCGGAGTCACCTAGTGCAG	8620 fluorescence intensity (a.u.)

Some of the entries above, reformatted:
Sequence,binding signal
CCATCACTCTCTCTTCACTCAATGCCGTGGAAATTGGAAGCGGAGTCACCTAGTGCAG,8220 fluorescence intensity (a.u.)
CACGCATTCCTCTGCACCTCTGCAGTCTGCACACACGCACCGGAGTCACCTAGTGCAG,12900 fluorescence intensity (a.u.)
ACCCGTCTCTGTTCATCTCCACATCTTGTCTTCTCGCTGTCGGAGTCACCTAGTGCAG,18100 fluorescence intensity (a.u.)
AACGAATGCTTAGGCCCAAACTACAACTTTCTCGTTTTCTCGGAGTCACCTAGTGCAG,11000 fluorescence intensity (a.u.)

Further entries:

Sequence	binding signal
AGCGATGGTGGTGGTGGTGGTGGTGGTGGCTGGGTTGCTTCGGAGTCACCTAGTGCAG	28200 fluorescence intensity (a.u.)
GCTTCGCTTTGGTTTTGGTCCTCAAAACTTCCAGTCTGACCGGAGTCACCTAGTGCAG	8370 fluorescence intensity (a.u.)
ACCACTGTTTCGTCTGTTACTGCAGGATATCGTTCCGAAACGGAGTCACCTAGTGCAG	9630 fluorescence intensity (a.u.)
CTCTCACATCTTCTTTCTTTCCTTCTCTGGATCTCTTCCACGGAGTCACCTAGTGCAG	8560 fluorescence intensity (a.u.)
TCCACCTATGCCTCATCAATTCGCCATCTCTTATTCCTGTCGGAGTCACCTAGTGCAG	9990 fluorescence intensity (a.u.)
TCTCCTCTCCTCTCCTCTCCTACTAGCGGCCAAGCTTTCACGGAGTCACCTAGTGCAG	8180 fluorescence intensity (a.u.)
AAGTTCGAGAAGACTTTGTTTTTGTTTTGTCTTAATTTCCCGGAGTCACCTAGTGCAG	11700 fluorescence intensity (a.u.)
TTCATGCAGTTTAATTAATTTTCTTCCTAATTTTTTACACCGGAGTCACCTAGTGCAG	10000 fluorescence intensity (a.u.)
CGGCTGTGTTCGTTATGTATGGTTGAGAACTTTTTTTCTCCGGAGTCACCTAGTGCAG	11500 fluorescence intensity (a.u.)
GGAATATATAAAGGGGCGCGGGTTGGGCGGGCGAGGAGGTCGGAGTCACCTAGTGCAG	11300 fluorescence intensity (a.u.)
CCAGTGTTGTAATCTTATAATTTTTTTCCTACTTATCAATCGGAGTCACCTAGTGCAG	8920 fluorescence intensity (a.u.)
ATTTCTATTTTCTTTGTTCGCACGTATTTCTCTCTTTCTCCGGAGTCACCTAGTGCAG	10900 fluorescence intensity (a.u.)
TCCGACTACACGCGGAGACTTACACCTTTGACAGACAACACGGAGTCACCTAGTGCAG	9220 fluorescence intensity (a.u.)
CCAATTTGTACCCGCGTGTCCGGTTGGTTGGCTGGTTGGTCGGAGTCACCTAGTGCAG	9020 fluorescence intensity (a.u.)
TTCTAGTAGTACAGTACACCATCACTAACCTCCTTTTCATCGGAGTCACCTAGTGCAG	11500 fluorescence intensity (a.u.)
GTTTGCCCGCCGCGGCGCCGCCGCCGCCGCCGCCGATCCCCGGAGTCACCTAGTGCAG	8290 fluorescence intensity (a.u.)
ATGCAGCACGGGAGAAGGGGAGGGTGGCGGAAGGGCGAGGCGGAGTCACCTAGTGCAG	9410 fluorescence intensity (a.u.)
CTGTTACGCACTATTTTGATAATTAACCAACTGTTTTTCACGGAGTCACCTAGTGCAG	8380 fluorescence intensity (a.u.)
AGTGGTTCGTGCAGCCGGCTAGCCAGGTCTCTTCGTTTTTCGGAGTCACCTAGTGCAG	13100 fluorescence intensity (a.u.)
CATGCTTTCATTCACCAGGTTCAAATTTTAATGTTTATAACGGAGTCACCTAGTGCAG	10700 fluorescence intensity (a.u.)
CACGTATTTCTCTCTTTCTCAATGCATCGGGGAGGACAACCGGAGTCACCTAGTGCAG	8380 fluorescence intensity (a.u.)

Sequence	binding signal
ACCTCAATGCTTATCTCCATCTACACTGTTGGACGGTTCACGGAGTCACCTAGTGCAG	8790 fluorescence intensity (a.u.)
GTGAATGACATATAGGTCCCATTTATTCTTTTTATTTTTACGGAGTCACCTAGTGCAG	8420 fluorescence intensity (a.u.)
AAATCGACGTGCGCGCCTTAATTTCTACAGTCCACTACCACGGAGTCACCTAGTGCAG	10300 fluorescence intensity (a.u.)
TCTCTGTGAATTCAATCTTTGTATAATATGTGTCGGTAATCGGAGTCACCTAGTGCAG	13400 fluorescence intensity (a.u.)
GCCGCCACATCGATCTACCTACGCATGCGTTTCCTCCTCCCGGAGTCACCTAGTGCAG	8670 fluorescence intensity (a.u.)
TTTTGACTTGTCCATATCTTTCAGGATCCTCCTTTAGTTTCGGAGTCACCTAGTGCAG	9240 fluorescence intensity (a.u.)
GCACCGGACGTCCCACGTCGCTCCACGTCACCGATCCGCGCGGAGTCACCTAGTGCAG	8080 fluorescence intensity (a.u.)
CCACCGCCCGCTCGACGCGCTCTCCCGCTTCCGCTCCATGCGGAGTCACCTAGTGCAG	8970 fluorescence intensity (a.u.)
TTGATTTTTTTTCTTGTTTTCTGAAGATTTTATTTACAAACGGAGTCACCTAGTGCAG	8960 fluorescence intensity (a.u.)
ATTTTTTTGGGCGCGGGTTGGAGCCGGTTTGACTAAAAGGCGGAGTCACCTAGTGCAG	8310 fluorescence intensity (a.u.)
ATACGTCTCTTTTCGAAACAATGAGCTTCACTTCTTTAAGCGGAGTCACCTAGTGCAG	8470 fluorescence intensity (a.u.)
CCGGAGGTGTTTCGTTTTGTTTTGAATTTTTTTTCCCTTTCGGAGTCACCTAGTGCAG	9230 fluorescence intensity (a.u.)
TTCCATACCTCAGTCGCATGATACTACTACTAGTACTATTCGGAGTCACCTAGTGCAG	9300 fluorescence intensity (a.u.)
CGCCGTGCCCAACATCCTCTATCCACACACCGCTTGATTTCGGAGTCACCTAGTGCAG	9130 fluorescence intensity (a.u.)
TGTGCCACTTTATGTCTGCCCTTCGTCTGTCATCTCTACTCGGAGTCACCTAGTGCAG	8670 fluorescence intensity (a.u.)
GGTTGATCCGATTTTTTCTGTTTCTCTGCTTGTAGCAATGCGGAGTCACCTAGTGCAG	8200 fluorescence intensity (a.u.)
ACCGATCCCCATCGCCGCCGTCGCTCCACCGGCTCGCCCTCGGAGTCACCTAGTGCAG	8120 fluorescence intensity (a.u.)
TTCGGGTTTTTTTTTTGTTTATTTTGTCTTTCGCTTTTCACGGAGTCACCTAGTGCAG	14900 fluorescence intensity (a.u.)
GAGTCGTGTTTGGTTGGTATGAAGATGTGTGATAAGGGCACGGAGTCACCTAGTGCAG	9610 fluorescence intensity (a.u.)
AACGAATTTGAACATGCCCCATCCTTACCTAAGTCTAGTTCGGAGTCACCTAGTGCAG	15500 fluorescence intensity (a.u.)
AAACTTAAACATTTCGCTTCATTTCTTTTTGCCCCATTATCGGAGTCACCTAGTGCAG	8640 fluorescence intensity (a.u.)

Exported comma-delimited: entries from further up.
Sequence,binding signal
GCAAAACTAGCATCTTTATTTATTGGGGCATTGGTTATTACGGAGTCACCTAGTGCAG,11000 fluorescence intensity (a.u.)
GATATGGTAATTTAGTGTCCATTATGGTGTTTCTTAATTGCGGAGTCACCTAGTGCAG,8100 fluorescence intensity (a.u.)
TCCTAACCAAACGGGCCGTGATCCCTTTTGCTTCTCTGATCGGAGTCACCTAGTGCAG,9300 fluorescence intensity (a.u.)

Further results follow.

Sequence	binding signal
CCGTTGTTGGGCATCTACATCTTAATCGCCGGTCGTCTCGCGGAGTCACCTAGTGCAG	8320 fluorescence intensity (a.u.)
GCCTCGAGCTCCGTCAGACATGTTCAGTTTCATTATATTACGGAGTCACCTAGTGCAG	8120 fluorescence intensity (a.u.)
CGGTTGGTTGGCTGGTTGGTCGGCGAATTGCACATCTTGGCGGAGTCACCTAGTGCAG	8210 fluorescence intensity (a.u.)
GTCATATATCTGGTTTTGTGGTTGGAGGACGATTTTGTAACGGAGTCACCTAGTGCAG	9470 fluorescence intensity (a.u.)
ACTGCGCTGACGCCCGCGGCCGCCGCGGCGTCGCCTGCCGCGGAGTCACCTAGTGCAG	8080 fluorescence intensity (a.u.)
TTGTGTCATGTAGGTCCTTAAACTCTCAAAATGCATATCTCGGAGTCACCTAGTGCAG	8760 fluorescence intensity (a.u.)
AATTTTGAGATTTCTTTTCATCGTAGTTTTTTCCCATACTCGGAGTCACCTAGTGCAG	9260 fluorescence intensity (a.u.)
GGAACGTCTGAACACACAAGCTATCGTCATCTGAACGCACCGGAGTCACCTAGTGCAG	8240 fluorescence intensity (a.u.)
TTTTTTCCGGCATCCAACGTCGCACATCCATCCACGTCATCGGAGTCACCTAGTGCAG	11000 fluorescence intensity (a.u.)
GTCTCAGAATATATGATACGATCGTCCTGTCACTTGCCCACGGAGTCACCTAGTGCAG	9060 fluorescence intensity (a.u.)
CTCCGGACTCGCCGCGATCCACTTATTCCTCGCTCCCAATCGGAGTCACCTAGTGCAG	8650 fluorescence intensity (a.u.)
GTTGTGCACAATCATCTCTAGTTGTTTTGTGTATCCCTATCGGAGTCACCTAGTGCAG	8830 fluorescence intensity (a.u.)
TCGTTGACTTTTTAACCAACGTTTAACCATTCGTCTTATTCGGAGTCACCTAGTGCAG	18600 fluorescence intensity (a.u.)
ACTGACTCTGACACACATCCTATCAAGCCTATACACATATCGGAGTCACCTAGTGCAG	10600 fluorescence intensity (a.u.)
AGGGGTTAGCTATTATCGGACAACTTGGCATATTGAAATTCGGAGTCACCTAGTGCAG	11000 fluorescence intensity (a.u.)
GTGGGCCACTACCTTCGCGTTCTTCATCGCCCACGTGGTCCGGAGTCACCTAGTGCAG	8910 fluorescence intensity (a.u.)
TGAGCACATGGCAGGGGAGGGACCGATGGGTGGGAGGACGCGGAGTCACCTAGTGCAG	10500 fluorescence intensity (a.u.)
GTAAAGAGCTCTCTTATCCTGAACTTGAACTGTTTTTCTCCGGAGTCACCTAGTGCAG	9790 fluorescence intensity (a.u.)
CGCGCTGGAGATGTTTGGAGTGTTCTTTGCAGTTGCTGTTCGGAGTCACCTAGTGCAG	10200 fluorescence intensity (a.u.)
TTCCACGATTTGATTTTGAGTCTCTGTGAATTCAATCTTTCGGAGTCACCTAGTGCAG	8780 fluorescence intensity (a.u.)
GTTGCCGCTACACCTTCCACCTCAGCACCCTCGATGGCCTCGGAGTCACCTAGTGCAG	9080 fluorescence intensity (a.u.)
